Measured values published in patent US20260108546A1 (ELI LILLY AND COMPANY, priority 2024, published 2026).
Some entries share one result that the patent states for a list of compounds.

target: T1, hGIP-R (Homo sapiens, UniProt P48546); experiment: Functional hGIP-R Assay (cAMP formation, HTRF); format: cell-based; details: cAMP formation in HEK-293 clonal cell lines expressing hGIP-R; 30 min at 37° C.; 0.1% bovine casein; relative EC50 vs. maximal response of human GIP (1-42) OH
T1 construct: expressed in transfected cells; host or cells: HEK-293 clonal cell lines
T1 sequence (P48546 22-466): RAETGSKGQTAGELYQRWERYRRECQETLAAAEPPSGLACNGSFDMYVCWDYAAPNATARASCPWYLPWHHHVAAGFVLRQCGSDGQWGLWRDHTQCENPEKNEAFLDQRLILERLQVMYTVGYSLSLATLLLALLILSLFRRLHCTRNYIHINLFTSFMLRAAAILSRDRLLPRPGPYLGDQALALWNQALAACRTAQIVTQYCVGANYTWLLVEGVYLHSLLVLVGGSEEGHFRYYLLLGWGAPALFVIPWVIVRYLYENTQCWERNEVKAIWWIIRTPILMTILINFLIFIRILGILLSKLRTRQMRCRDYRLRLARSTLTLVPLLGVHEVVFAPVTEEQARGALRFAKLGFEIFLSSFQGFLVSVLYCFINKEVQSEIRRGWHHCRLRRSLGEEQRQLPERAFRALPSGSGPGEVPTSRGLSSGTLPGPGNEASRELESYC
How it was run: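 Relative EC50 and Emax came from four-parameter logistic fits of cAMP as a percent of the human GIP (1-42) OH maximal response. The cAMP was measured by competitive HTRF after 30 min, 37 °C compound exposure of hGIP-R HEK-293 clones in IBMX (250 μM)-containing medium.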

SMILES	EC50 [nM]
CNC(=O)Cn1cc(-c2cc(C(F)(F)F)nn2CC(C)(C)NC(=O)[C@@H](Cc2cnn(C(F)F)c2)N2CC[C@@]3(C[C@@H]3c3ccc(-c4cnc5nn(C)cc5c4)cc3)C2=O)cn1 [Example 127, (R)-3-(1-(Difluoromethyl)-1H-pyrazol-4-yl)-N-(2-methyl-1-(1′-(2-(methylamino)-2-oxoethyl)-5-(trifluoromethyl)-1′H,2H-[3,4′-bipyrazol]-2-yl)propan-2-yl)-2-((1R,3R)-1-(4-(2-methyl-2H-pyrazolo[3,4-b]pyridin-5-yl)phenyl)-4-oxo-5-azaspiro[2.4]heptan-5-yl)propanamide]	≤ 300
Cn1cc(-c2cc(C(F)(F)F)nn2CC(C)(C)NC(=O)[C@@H](Cc2cnn(C(F)F)c2)NC(=O)[C@H]2C[C@@H]2c2nc3c(Cl)nn(C)c3cc2C#N)cc(F)c1=O [Example 155, (1S,2S)-2-(3-Chloro-6-cyano-1-methyl-1H-pyrazolo[4,3-b]pyridin-5-yl)-N—((R)-3-(1-(difluoromethyl)-1H-pyrazol-4-yl)-1-((1-(5-(5-fluoro-1-methyl-6-oxo-1,6-dihydropyridin-3-yl)-3-(trifluoromethyl)-1H-pyrazol-1-yl)-2-methylpropan-2-yl)amino)-1-oxopropan-2-yl)cyclopropane-1-carboxamide]	≤ 300
Cn1cc2cc(-c3ccc([C@H]4C[C@@H]4C(=O)N[C@H](Cc4cnn(C(F)F)c4)C(=O)NC(C)(C)Cn4nc(C(F)(F)F)cc4-c4cn[nH]n4)cc3)cnc2n1 [Example 43, (1S,2S)-N-((R)-1-((1-(5-(2H-1,2,3-Triazol-4-yl)-3-(trifluoromethyl)-1H-pyrazol-1-yl)-2-methylpropan-2-yl)amino)-3-(1-(difluoromethyl)-1H-pyrazol-4-yl)-1-oxopropan-2-yl)-2-(4-(2-methyl-2H-pyrazolo[3,4-b]pyridin-5-yl)phenyl)cyclopropane-1-carboxamide]	≤ 300
CN(C(=O)[C@H]1C[C@@H]1c1ccc(NC(=O)C2CCC(F)(F)CC2)cc1)[C@H](Cc1cnn(C)c1)C(=O)NC(C)(C)Cn1nc(C(F)(F)F)cc1-c1ccc(=O)n(C)c1 [Example 35, 4,4-Difluoro-N-(4-((1S,2S)-2-(methyl((R)-1-((2-methyl-1-(5-(1-methyl-6-oxo-1,6-dihydropyridin-3-yl)-3-(trifluoromethyl)-1H-pyrazol-1-yl)propan-2-yl)amino)-3-(1-methyl-1H-pyrazol-4-yl)-1-oxopropan-2-yl)carbamoyl)cyclopropyl)phenyl)cyclohexane-1-carboxamide]	≤ 300
Cc1nc(-c2cnc3nc(C4CC4)cn3c2)ccc1[C@H]1C[C@@]12CCN([C@H](Cc1cnn(C(F)F)c1)C(=O)NC(C)(C)Cn1nc(C(F)(F)F)cc1-c1ccn(C3CC3)c(=O)c1)C2=O [Example 145, (R)—N-(1-(5-(1-Cyclopropyl-2-oxo-1,2-dihydropyridin-4-yl)-3-(trifluoromethyl)-1H-pyrazol-1-yl)-2-methylpropan-2-yl)-2-((1R,3R)-1-(6-(2-cyclopropylimidazo[1,2-a]pyrimidin-6-yl)-2-methylpyridin-3-yl)-4-oxo-5-azaspiro[2.4]heptan-5-yl)-3-(1-(difluoromethyl)-1H-pyrazol-4-yl)propanamide]	≤ 300
[2H]C([2H])([2H])n1cc(C[C@H](C(=O)NC(C)(C)Cn2nc(C(F)(F)F)cc2-c2ccc(C(C)(C)O)nc2)N2CC[C@@]3(C[C@@H]3c3ccc(-c4cnc5nc(COC)cn5c4)cc3Cl)C2=O)cn1 [Example 188, (R)-2-((1S,3R)-1-(2-chloro-4-(2-(methoxymethyl)imidazo[1,2-a]pyrimidin-6-yl)phenyl)-4-oxo-5-azaspiro[2.4]heptan-5-yl)-N-(1-(5-(6-(2-hydroxypropan-2-yl)pyridin-3-yl)-3-(trifluoromethyl)-1H-pyrazol-1-yl)-2-methylpropan-2-yl)-3-(1-(methyl-d3)-1H-pyrazol-4-yl)propanamide]	≤ 300
